This is one part of the list.
Assays:
Test in all cases: log2 fold change, soluble protein after heating vs DMSO (PISA); higher = thermal stabilisation; K562 lysate, 10 uM; active = over 0.2 and 3.5 SD of the protein, either way, in both replicates (recomputed)
[1] = compound: Cc1cn(-c2cc(NC(=O)c3ccc(C)c(Nc4nccc(-c5cccnc5)n4)c3)cc(C(F)(F)F)c2)cn1 [nilotinib]
Outline: (§1)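 Thermal stability, expressed as log-two fold change relative to solvent controls, is given from duplicates. Crude K562 extract in PBS pH 7.4 with 1 mM MgCl2, at 1 mg/mL protein, was treated with 10 μM compound for 30 min and heated in aliquots for 3 min across 48°C-58°C. After pooling, adjustment to 0.5% NP-40 at 4°C and centrifugation at 21,000xg for 90 min, supernatant protein was measured by TMTpro 16plex LC-MS/MS with channel sums equalised.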

By UniProt entry, the sequences of proteins in these tests, tags left out. Where a name states a change or a piece, a line headed by the entry shows the natural chain unless it says otherwise.
UniProt P61081: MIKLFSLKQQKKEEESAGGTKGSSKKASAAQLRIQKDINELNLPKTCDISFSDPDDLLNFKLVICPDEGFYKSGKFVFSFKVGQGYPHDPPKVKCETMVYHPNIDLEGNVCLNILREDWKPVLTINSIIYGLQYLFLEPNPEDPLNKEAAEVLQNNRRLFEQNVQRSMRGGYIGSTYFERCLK
UniProt Q15819: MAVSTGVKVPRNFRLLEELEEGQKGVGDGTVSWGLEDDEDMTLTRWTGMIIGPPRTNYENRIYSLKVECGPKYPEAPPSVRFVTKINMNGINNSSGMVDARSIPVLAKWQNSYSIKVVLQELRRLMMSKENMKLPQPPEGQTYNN
UniProt Q9Y385: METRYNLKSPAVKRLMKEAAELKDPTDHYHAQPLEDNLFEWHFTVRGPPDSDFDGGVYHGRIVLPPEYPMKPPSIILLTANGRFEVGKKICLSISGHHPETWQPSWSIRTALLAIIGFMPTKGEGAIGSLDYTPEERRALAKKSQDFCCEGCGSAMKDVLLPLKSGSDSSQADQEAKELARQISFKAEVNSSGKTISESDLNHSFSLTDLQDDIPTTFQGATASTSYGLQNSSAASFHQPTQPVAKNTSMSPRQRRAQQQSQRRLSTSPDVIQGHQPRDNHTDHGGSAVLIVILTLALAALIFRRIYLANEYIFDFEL
UniProt Q96CW5, whole entry, looked up: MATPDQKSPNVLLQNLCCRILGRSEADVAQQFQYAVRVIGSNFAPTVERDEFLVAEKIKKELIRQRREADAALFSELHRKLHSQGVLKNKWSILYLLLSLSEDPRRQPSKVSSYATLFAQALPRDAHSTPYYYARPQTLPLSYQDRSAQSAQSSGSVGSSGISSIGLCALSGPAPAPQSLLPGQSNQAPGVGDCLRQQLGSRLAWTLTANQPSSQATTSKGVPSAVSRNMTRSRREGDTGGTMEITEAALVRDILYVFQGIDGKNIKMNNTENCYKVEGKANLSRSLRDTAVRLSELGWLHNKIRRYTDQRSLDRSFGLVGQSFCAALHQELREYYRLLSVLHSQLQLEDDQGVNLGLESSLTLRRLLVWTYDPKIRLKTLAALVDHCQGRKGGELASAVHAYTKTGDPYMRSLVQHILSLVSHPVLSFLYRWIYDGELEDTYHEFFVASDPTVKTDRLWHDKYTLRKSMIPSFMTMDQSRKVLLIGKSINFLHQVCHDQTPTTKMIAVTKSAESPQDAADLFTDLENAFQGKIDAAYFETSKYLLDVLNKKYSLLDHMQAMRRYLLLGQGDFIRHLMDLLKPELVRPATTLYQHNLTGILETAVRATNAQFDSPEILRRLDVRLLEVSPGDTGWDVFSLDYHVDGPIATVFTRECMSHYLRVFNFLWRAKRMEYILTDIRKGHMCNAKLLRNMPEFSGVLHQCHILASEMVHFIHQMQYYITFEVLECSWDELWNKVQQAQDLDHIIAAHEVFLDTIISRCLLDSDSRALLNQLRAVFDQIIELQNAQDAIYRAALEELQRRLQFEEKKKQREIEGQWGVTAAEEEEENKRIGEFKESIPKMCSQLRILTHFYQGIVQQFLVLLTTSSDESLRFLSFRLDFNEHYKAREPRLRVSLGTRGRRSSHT
UniProt P10599: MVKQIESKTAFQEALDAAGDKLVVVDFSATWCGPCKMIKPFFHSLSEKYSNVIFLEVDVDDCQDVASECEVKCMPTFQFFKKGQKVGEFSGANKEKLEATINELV
UniProt P11441: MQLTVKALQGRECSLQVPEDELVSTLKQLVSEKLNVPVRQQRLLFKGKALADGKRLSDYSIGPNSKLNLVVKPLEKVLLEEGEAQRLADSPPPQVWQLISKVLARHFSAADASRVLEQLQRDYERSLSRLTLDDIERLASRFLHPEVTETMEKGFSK
UniProt Q9GZZ9, whole entry, looked up: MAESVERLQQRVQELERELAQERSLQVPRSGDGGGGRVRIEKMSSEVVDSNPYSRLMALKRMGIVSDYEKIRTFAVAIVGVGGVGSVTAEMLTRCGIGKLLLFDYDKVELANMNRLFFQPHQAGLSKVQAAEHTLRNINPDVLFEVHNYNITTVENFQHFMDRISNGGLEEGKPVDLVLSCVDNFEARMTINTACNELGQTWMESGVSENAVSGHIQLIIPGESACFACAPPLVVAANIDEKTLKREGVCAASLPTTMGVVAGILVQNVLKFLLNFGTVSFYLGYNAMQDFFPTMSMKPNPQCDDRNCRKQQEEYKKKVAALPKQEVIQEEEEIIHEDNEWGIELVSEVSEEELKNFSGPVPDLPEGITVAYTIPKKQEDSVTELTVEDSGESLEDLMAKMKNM
UniProt Q969T4: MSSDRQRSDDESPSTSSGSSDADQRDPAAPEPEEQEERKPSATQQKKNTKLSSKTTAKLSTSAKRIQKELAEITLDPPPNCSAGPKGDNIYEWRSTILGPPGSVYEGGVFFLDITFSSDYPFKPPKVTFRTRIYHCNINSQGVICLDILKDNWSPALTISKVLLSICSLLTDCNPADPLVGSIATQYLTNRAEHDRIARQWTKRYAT
UniProt Q9UJT1: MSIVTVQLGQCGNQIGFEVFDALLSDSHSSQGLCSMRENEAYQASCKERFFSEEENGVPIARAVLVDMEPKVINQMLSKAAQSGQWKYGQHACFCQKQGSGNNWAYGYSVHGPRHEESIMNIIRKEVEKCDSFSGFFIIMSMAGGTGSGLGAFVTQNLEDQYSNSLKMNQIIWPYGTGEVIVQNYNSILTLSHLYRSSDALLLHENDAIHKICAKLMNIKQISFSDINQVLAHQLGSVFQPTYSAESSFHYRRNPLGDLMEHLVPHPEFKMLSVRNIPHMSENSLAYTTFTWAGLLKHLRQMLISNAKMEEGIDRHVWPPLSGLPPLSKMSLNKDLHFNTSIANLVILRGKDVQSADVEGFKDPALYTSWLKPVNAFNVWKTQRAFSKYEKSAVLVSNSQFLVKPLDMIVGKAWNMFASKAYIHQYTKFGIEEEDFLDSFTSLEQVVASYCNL
UniProt P04350, whole entry, looked up: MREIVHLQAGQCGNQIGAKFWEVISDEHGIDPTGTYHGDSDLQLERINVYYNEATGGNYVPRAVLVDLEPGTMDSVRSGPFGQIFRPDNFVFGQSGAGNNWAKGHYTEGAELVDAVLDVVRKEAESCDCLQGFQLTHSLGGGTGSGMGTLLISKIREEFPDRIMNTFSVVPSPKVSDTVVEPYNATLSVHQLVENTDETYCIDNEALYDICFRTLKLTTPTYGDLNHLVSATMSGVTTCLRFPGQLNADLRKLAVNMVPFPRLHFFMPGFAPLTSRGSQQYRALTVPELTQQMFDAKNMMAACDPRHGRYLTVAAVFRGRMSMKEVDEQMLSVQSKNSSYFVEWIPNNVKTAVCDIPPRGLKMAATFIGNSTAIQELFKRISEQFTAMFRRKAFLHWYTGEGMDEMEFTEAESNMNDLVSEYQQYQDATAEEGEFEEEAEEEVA
UniProt O14530: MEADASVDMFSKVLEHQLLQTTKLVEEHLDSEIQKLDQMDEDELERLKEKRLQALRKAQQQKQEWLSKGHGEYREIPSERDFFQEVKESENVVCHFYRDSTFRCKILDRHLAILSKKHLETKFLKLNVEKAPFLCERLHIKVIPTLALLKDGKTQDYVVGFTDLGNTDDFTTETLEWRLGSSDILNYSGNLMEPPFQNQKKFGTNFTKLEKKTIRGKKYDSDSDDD
UniProt P0DPH7, whole entry, looked up: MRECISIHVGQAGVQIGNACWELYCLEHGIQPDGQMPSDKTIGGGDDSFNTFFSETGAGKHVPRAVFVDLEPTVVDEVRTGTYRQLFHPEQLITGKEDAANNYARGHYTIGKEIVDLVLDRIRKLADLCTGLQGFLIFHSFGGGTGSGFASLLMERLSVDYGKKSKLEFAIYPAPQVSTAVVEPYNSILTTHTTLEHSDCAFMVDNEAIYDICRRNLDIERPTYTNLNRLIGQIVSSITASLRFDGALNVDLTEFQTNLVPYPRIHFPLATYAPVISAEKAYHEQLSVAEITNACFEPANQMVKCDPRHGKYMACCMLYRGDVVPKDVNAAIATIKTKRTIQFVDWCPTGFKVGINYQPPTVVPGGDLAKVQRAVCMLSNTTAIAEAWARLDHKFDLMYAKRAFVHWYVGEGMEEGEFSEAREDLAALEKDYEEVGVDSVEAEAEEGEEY
UniProt Q9NZ09: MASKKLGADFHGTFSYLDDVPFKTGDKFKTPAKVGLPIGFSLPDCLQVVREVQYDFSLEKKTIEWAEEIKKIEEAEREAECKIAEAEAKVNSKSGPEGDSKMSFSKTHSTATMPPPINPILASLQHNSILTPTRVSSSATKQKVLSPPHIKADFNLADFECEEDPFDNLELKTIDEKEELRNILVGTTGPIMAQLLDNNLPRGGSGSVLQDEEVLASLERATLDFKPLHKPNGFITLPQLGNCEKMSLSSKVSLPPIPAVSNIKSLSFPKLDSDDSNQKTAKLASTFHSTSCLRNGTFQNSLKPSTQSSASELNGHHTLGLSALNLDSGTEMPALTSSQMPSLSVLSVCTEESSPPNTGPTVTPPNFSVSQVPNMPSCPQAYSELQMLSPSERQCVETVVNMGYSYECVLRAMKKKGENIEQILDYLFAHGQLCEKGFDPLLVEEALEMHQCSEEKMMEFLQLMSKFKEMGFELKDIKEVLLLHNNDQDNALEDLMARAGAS
UniProt Q04323: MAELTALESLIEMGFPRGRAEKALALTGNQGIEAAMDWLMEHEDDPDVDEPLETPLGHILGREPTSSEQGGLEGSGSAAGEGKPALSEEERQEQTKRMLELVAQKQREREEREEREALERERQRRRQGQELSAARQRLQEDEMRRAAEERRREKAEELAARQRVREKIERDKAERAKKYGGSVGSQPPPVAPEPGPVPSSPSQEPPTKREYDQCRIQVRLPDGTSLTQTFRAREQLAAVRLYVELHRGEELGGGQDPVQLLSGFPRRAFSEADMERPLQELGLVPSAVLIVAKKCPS
UniProt Q8IWV8: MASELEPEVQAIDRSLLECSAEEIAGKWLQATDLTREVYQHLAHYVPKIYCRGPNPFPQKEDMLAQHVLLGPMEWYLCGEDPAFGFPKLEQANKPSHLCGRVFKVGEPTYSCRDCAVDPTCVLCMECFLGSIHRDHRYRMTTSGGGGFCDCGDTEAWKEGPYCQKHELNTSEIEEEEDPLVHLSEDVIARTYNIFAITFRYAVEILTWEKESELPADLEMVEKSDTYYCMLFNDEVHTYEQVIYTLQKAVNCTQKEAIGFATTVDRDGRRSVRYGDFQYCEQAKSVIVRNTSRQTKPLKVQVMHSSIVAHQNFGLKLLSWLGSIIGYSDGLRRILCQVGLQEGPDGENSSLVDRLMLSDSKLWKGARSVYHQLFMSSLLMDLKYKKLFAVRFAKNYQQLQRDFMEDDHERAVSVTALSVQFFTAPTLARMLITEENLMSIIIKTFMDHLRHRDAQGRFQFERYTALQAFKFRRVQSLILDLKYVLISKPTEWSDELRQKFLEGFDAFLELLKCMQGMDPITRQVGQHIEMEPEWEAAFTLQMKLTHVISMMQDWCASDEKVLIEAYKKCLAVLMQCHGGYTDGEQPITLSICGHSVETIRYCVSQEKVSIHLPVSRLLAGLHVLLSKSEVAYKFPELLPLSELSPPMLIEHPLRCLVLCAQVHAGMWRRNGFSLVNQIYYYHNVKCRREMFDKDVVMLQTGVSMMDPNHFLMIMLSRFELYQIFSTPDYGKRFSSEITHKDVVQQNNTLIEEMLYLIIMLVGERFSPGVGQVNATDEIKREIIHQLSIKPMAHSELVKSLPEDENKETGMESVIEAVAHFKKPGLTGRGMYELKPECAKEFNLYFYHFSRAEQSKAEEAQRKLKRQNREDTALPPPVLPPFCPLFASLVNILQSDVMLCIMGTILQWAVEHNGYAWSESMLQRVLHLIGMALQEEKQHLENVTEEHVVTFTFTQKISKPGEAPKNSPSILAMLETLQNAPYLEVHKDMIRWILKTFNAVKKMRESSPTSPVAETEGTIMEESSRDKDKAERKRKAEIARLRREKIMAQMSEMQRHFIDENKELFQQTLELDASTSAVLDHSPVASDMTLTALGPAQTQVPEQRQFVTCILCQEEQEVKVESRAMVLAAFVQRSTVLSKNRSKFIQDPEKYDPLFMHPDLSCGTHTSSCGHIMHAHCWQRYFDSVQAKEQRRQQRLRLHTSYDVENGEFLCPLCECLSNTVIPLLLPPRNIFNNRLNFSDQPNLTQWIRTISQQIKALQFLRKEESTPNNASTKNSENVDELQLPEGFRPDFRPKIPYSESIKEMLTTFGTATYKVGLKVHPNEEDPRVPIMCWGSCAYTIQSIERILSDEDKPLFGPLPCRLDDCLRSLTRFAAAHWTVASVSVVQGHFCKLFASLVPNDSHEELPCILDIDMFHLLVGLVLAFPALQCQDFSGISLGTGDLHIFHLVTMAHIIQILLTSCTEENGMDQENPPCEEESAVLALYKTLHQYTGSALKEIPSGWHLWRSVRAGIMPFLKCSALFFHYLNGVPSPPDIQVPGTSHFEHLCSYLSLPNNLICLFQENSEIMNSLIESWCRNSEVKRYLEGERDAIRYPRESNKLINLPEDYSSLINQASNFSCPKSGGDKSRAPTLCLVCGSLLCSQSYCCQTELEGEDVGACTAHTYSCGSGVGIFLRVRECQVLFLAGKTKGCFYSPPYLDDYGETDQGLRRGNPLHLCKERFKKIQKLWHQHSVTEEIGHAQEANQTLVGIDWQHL

[2] = compound: Cc1nc(Nc2n[nH]c3c2CN(C(=O)N[C@H](CN(C)C)c2ccccc2)C3(C)C)c2sccc2n1
Outline: as §1

[3] = compound: Cc1nc(Nc2ncc(C(=O)Nc3c(C)cccc3Cl)s2)cc(N2CCN(CCO)CC2)n1 [dasatinib]
Outline: as §1

[4] = compound: Cc1ncc(-c2ccnc(Nc3ccc(S(C)(=O)=O)cc3)n2)n1C(C)C
Outline: as §1

[5] = compound: Cn1cc(-c2ccc3c(c2)CCN3C(=O)Cc2cccc(C(F)(F)F)c2)c2c(N)ncnc21
Outline: as §1

[6] = compound: Cn1cc(CNCC2CCN(c3ncc(C(=O)NO)cn3)CC2)c2ccccc21 [quisinostat]
Outline: as §1

[7] = compound: Cn1cncc1[C@@](N)(c1ccc(Cl)cc1)c1ccc2c(c1)c(-c1cccc(Cl)c1)cc(=O)n2C [tipifarnib]
Outline: as §1

[8] = compound: NC(=O)Nc1cc(-c2cccc(F)c2)sc1C(=O)N[C@H]1CCCNC1
Outline: as §1

[9] = compound: NC(=O)c1cnc(N[C@@H]2CCCC[C@@H]2N)nc1Nc1cccc(-n2nccn2)c1
Outline: as §1

[10] = compound: NC1(c2ccc(-c3nc4ccn5c(=O)[nH]nc5c4cc3-c3ccccc3)cc2)CCC1
Outline: as §1

Measured: log2 fold change

UBE2M (UniProt P61081)
inactive: [1] 0.014 | [2] -0.02 | [3] -0.053 | [4] 0.007 | [5] 0.016 | [6] 0.063 | [7] 0.006 | [8] -0.041 | [9] 0.001 | [10] 0.008

TUBB4B (UniProt P68371)
inactive: [1] 0.049 | [2] -0.05 | [3] -0.025 | [4] -0.034 | [5] -0.005 | [6] 0.033 | [7] -0.001 | [8] 0.006 | [9] -0.019 | [10] 0.009

UBE2V2 (UniProt Q15819)
inactive: [1] 0.001 | [2] 0.008 | [3] 0.024 | [4] -0.036 | [5] 0.115 | [6] 0.023 | [7] 0.039 | [8] 0.004 | [9] -0.008 | [10] -0.014

UBE2J1 (UniProt Q9Y385)
inactive: [1] -0.008 | [2] 0.012 | [3] -0.163 | [4] -0.005 | [5] -0.042 | [6] -0.004 | [7] -0.005 | [8] -0.002 | [9] 0.016 | [10] 0.053

TWF2 (UniProt Q6IBS0)
inactive: [1] -0.012 | [2] 0.035 | [3] 0.021 | [4] 0.022 | [5] 0.004 | [6] 0.015 | [7] 0.008 | [8] -0.019 | [9] -0.006 | [10] -0.028

TXNDC11 (UniProt Q6PKC3)
inactive: [1] -0.006 | [2] 0.07 | [3] -0.038 | [4] 0.063 | [5] 0.004 | [6] -0.064 | [7] 0.134 | [8] 0.052 | [9] -0.029 | [10] -0.024

TUBGCP3 (UniProt Q96CW5)
inactive: [1] -0.031 | [2] 0.029 | [3] -0.038 | [4] 0.043 | [5] 0.038 | [6] -0.083 | [7] -0.023 | [8] 0.009 | [9] 0.002 | [10] 0.012

TXN2 (UniProt Q99757)
inactive: [1] -0.066 | [2] 0.033 | [3] 0.006 | [4] -0.022 | [5] -0.039 | [6] 0.057 | [7] -0.068 | [8] 0.005 | [9] 0 | [10] 0

TXN (UniProt P10599)
inactive: [1] 0.006 | [2] -0.035 | [3] 0.05 | [4] 0.006 | [5] 0.005 | [6] 0.056 | [7] 0.01 | [8] -0.017 | [9] 0.002 | [10] 0.007

UBL4A (UniProt P11441)
inactive: [1] -0.005 | [2] -0.013 | [3] 0.052 | [4] -0.037 | [5] 0.036 | [6] 0.157 | [7] -0.024 | [8] 0.02 | [9] 0.007 | [10] 0.016

UBA5 (UniProt Q9GZZ9)
inactive: [1] -0.051 | [2] 0.027 | [3] 0.027 | [4] -0.067 | [5] -0.001 | [6] 0.015 | [7] 0.059 | [8] 0.005 | [9] 0.014 | [10] 0.019

TUBGCP4 (UniProt Q9UGJ1)
inactive: [1] -0.028 | [2] 0.008 | [3] -0.046 | [4] 0.001 | [5] 0.018 | [6] -0.027 | [7] 0.008 | [8] 0.069 | [9] 0.034 | [10] 0.01

UBE2E3 (UniProt Q969T4)
inactive: [1] 0.011 | [2] -0.033 | [3] 0.033 | [4] -0.032 | [5] 0.007 | [6] -0.044 | [7] 0.014 | [8] 0.012 | [9] -0.004 | [10] -0.094

TUBD1 (UniProt Q9UJT1)
inactive: [1] -0.041 | [2] 0.143 | [3] 0.064 | [4] -0.1 | [5] 0.008 | [6] -0.113 | [7] 0.026 | [8] 0.028 | [9] 0.063 | [10] 0.104

UBTF (UniProt P17480)
inactive: [1] 0.001 | [2] 0.031 | [3] -0.021 | [4] -0.039 | [5] 0.004 | [6] 0 | [7] 0.015 | [8] 0.044 | [9] -0.01 | [10] -0.042

UBE2L6 (UniProt O14933)
inactive: [1] 0.038 | [2] -0.139 | [3] -0.018 | [4] 0.036 | [5] -0.055 | [6] 0.024 | [7] 0.043 | [8] -0.032 | [9] -0.002 | [10] -0.096

TXNL1 (UniProt O43396)
inactive: [1] 0.009 | [2] -0.004 | [3] 0.002 | [4] -0.025 | [5] 0 | [6] -0.009 | [7] 0.01 | [8] -0.004 | [9] 0 | [10] 0.003

TUBB4A (UniProt P04350)
inactive: [1] 0.027 | [2] -0.026 | [3] 0.003 | [4] -0.023 | [5] 0.067 | [6] -0.196 | [7] 0.027 | [8] 0.085 | [9] 0.011 | [10] 0.023

UBE2K (UniProt P61086)
inactive: [1] 0.059 | [2] 0.012 | [3] 0.015 | [4] 0.067 | [5] -0.029 | [6] 0 | [7] 0.013 | [8] -0.026 | [9] 0.016 | [10] -0.006

TWSG1 (UniProt Q9GZX9)
inactive: [1] -0.001 | [2] -0.115 | [3] -0.132 | [4] -0.038 | [5] -0.329 | [6] -0.01 | [7] 0.121 | [8] -0.004 | [9] 0.016 | [10] -0.047

TXNDC9 (UniProt O14530)
inactive: [1] 0.002 | [2] 0.014 | [3] -0.002 | [4] 0.009 | [5] 0.037 | [6] 0.025 | [7] 0.008 | [8] -0.01 | [9] 0.006 | [10] -0.006

TUBA3C (UniProt P0DPH7)
inactive: [1] -0.009 | [2] -0.029 | [3] -0.018 | [4] -0.001 | [5] -0.05 | [6] -0.098 | [7] -0.025 | [8] 0.05 | [9] 0.022 | [10] 0.005

UBAP1 (UniProt Q9NZ09)
inactive: [1] -0.003 | [2] -0.048 | [3] -0.005 | [4] 0.038 | [5] 0.014 | [6] -0.013 | [7] -0.095 | [8] 0.028 | [9] 0.083 | [10] 0.044

U2AF1 isoform 2 (UniProt Q01081)
inactive: [1] 0.026 | [2] -0.016 | [3] -0.086 | [4] 0.019 | [5] -0.066 | [6] -0.074 | [7] 0.002 | [8] -0.03 | [9] -0.009 | [10] 0.004

UBXN7 (UniProt O94888)
inactive: [1] -0.008 | [2] -0.012 | [3] 0.018 | [4] -0.004 | [5] -0.048 | [6] -0.001 | [7] 0.024 | [8] -0.02 | [9] 0.025 | [10] -0.019

Two successive records already listed, quoted:
TUBA3C (UniProt P0DPH7)
inactive: [1] -0.009 | [2] -0.029 | [3] -0.018 | [4] -0.001 | [5] -0.05 | [6] -0.098 | [7] -0.025 | [8] 0.05 | [9] 0.022 | [10] 0.005

UBAP1 (UniProt Q9NZ09)
inactive: [1] -0.003 | [2] -0.048 | [3] -0.005 | [4] 0.038 | [5] 0.014 | [6] -0.013 | [7] -0.095 | [8] 0.028 | [9] 0.083 | [10] 0.044

Following part.

UBXN1 (UniProt Q04323)
inactive: [1] 0.005 | [2] -0.017 | [3] -0.014 | [4] 0.009 | [5] 0.018 | [6] -0.1 | [7] 0.015 | [8] -0.017 | [9] 0.003 | [10] 0.025

UBR2 isoform 4 (UniProt Q8IWV8)
inactive: [1] 0 | [2] 0.01 | [3] -0.036 | [4] -0.027 | [5] 0.01 | [6] -0.091 | [7] -0.002 | [8] 0.035 | [9] 0.002 | [10] -0.013

UBQLN2 (UniProt Q9UHD9)
inactive: [1] 0.013 | [2] 0.037 | [3] 0.02 | [4] 0.073 | [5] 0.017 | [6] -0.023 | [7] 0.01 | [8] -0.005 | [9] 0.018 | [10] -0.021

UBE4B isoform 4 (UniProt O95155)
inactive: [1] 0.008 | [2] 0 | [3] -0.006 | [4] -0.003 | [5] 0.02 | [6] -0.015 | [7] -0.016 | [8] 0.003 | [9] 0.004 | [10] 0
